Data published in PMC9133610.
No constants are given. Whether binding was seen depends on the method and setting. Binding seen in cells or lysates may run through a third protein. Some binding calls cover weakened binding; strength is not graded here.

Protein sequences, listed by entry. Tags and fused reporters are not part of them. Residues count along the entry.
UniProt Q3UVX5, residues 19-1203: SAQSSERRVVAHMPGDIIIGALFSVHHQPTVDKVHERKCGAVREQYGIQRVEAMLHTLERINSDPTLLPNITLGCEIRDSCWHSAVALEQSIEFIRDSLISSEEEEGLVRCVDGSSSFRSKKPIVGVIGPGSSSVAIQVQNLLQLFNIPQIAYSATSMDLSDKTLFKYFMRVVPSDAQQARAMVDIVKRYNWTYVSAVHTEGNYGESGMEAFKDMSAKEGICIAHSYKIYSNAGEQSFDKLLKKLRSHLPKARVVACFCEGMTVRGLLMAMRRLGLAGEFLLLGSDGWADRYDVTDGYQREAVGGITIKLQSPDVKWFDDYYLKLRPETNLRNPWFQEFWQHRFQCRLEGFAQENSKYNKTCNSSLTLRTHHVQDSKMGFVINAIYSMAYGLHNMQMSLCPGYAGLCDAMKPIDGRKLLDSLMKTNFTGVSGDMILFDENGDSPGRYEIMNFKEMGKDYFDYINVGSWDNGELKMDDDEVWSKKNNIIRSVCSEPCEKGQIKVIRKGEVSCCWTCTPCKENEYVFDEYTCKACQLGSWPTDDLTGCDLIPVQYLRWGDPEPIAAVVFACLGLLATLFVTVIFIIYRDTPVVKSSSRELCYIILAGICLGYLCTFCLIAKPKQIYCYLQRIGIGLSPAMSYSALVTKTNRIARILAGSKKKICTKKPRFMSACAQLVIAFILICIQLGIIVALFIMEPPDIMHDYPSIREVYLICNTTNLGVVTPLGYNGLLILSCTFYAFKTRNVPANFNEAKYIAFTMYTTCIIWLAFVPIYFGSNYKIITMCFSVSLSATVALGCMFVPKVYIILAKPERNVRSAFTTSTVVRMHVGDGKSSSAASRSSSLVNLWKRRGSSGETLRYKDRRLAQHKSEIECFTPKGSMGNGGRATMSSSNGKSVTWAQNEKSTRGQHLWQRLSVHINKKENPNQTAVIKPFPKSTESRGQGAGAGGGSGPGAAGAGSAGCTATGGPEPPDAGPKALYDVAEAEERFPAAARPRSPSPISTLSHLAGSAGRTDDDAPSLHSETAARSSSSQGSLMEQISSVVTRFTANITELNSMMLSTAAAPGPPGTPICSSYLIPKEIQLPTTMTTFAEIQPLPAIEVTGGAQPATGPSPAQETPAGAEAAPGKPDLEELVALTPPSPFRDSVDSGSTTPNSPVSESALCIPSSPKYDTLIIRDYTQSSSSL

Target: PrP (prion protein), endogenous in SMB-S15 and SMB-PS cells (mouse (endogenous in SMB-S15 and SMB-PS)) (UniProt P04925)
Test: co-IP

Q: With “Metabotropic glutamate receptor subtype 5 (mGluR5), endogenous in SMB-S15 and SMB-PS cells (from UniProt Q3UVX5 19-1203)” as the substance, how does the binding read?
A: binds
